# Laboratory results as given in the supplement of paper PMC8728848.
# Some of the results follow.
# What was measured:
# Experiment in all cases: glycan array binding signal (z-score within array); higher = stronger binding
# Conditions in all cases: glycan notation: IUPAC condensed, linker removed; mutation: E321K
# [1] = molecular target: Fuc(a1-2)Gal
# Summary of the method: (§1)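 Arrays were curated from the Consortium for Functional Glycomics database, 3228 in total, and kept only where the protein sequence was available. Binding is expressed as a within-array Z-score. This score was averaged across arrays of the same protein sequence at different concentrations or buffers and across linkers, and negative values can be read as non-binding.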
# [2] = molecular target: Fuc(a1-2)Gal(b1-3)GalNAc
# Summary of the method: as §1
# [3] = molecular target: Fuc(a1-2)Gal(b1-3)GalNAc(b1-3)Gal
# Summary of the method: as §1
# [4] = molecular target: Fuc(a1-2)Gal(b1-3)GalNAc(b1-3)Gal(a1-4)Gal(b1-4)Glc
# Summary of the method: as §1
# [5] = molecular target: Fuc(a1-2)Gal(b1-3)GalNAc(b1-4)[Neu5Ac(a2-3)]Gal(b1-4)Glc
# Summary of the method: as §1
# [6] = molecular target: Fuc(a1-2)Gal(b1-3)GlcNAc
# Summary of the method: as §1
# [7] = molecular target: Fuc(a1-2)Gal(b1-3)GlcNAc(b1-3)Gal(b1-4)Glc
# Summary of the method: as §1
# [8] = molecular target: Fuc(a1-2)Gal(b1-3)[Fuc(a1-4)]GlcNAc
# Summary of the method: as §1
# [9] = molecular target: Fuc(a1-2)Gal(b1-4)Glc
# Summary of the method: as §1
# [10] = molecular target: Fuc(a1-2)Gal(b1-4)Glc6S
# Summary of the method: as §1
# [11] = molecular target: Fuc(a1-2)Gal(b1-4)GlcNAc
# Summary of the method: as §1
# [12] = molecular target: Fuc(a1-2)Gal(b1-4)GlcNAc(b1-3)Gal(b1-4)GlcNAc
# Summary of the method: as §1
# [13] = molecular target: Fuc(a1-2)Gal(b1-4)GlcNAc(b1-3)Gal(b1-4)GlcNAc(b1-3)Gal(b1-4)GlcNAc
# Summary of the method: as §1
# [14] = molecular target: Fuc(a1-2)Gal(b1-4)GlcNAc6S
# Summary of the method: as §1
# [15] = molecular target: Fuc(a1-2)Gal(b1-4)[Fuc(a1-3)]GlcNAc
# Summary of the method: as §1
# [16] = molecular target: Fuc(a1-2)Gal(b1-4)[Fuc(a1-3)]GlcNAc(b1-3)Gal(b1-4)[Fuc(a1-3)]GlcNAc
# Summary of the method: as §1
# [17] = molecular target: Fuc(a1-2)Gal(b1-4)[Fuc(a1-3)]GlcNAc(b1-3)Gal(b1-4)[Fuc(a1-3)]GlcNAc(b1-3)Gal(b1-4)[Fuc(a1-3)]GlcNAc
# Summary of the method: as §1
# [18] = molecular target: Fuc(a1-2)Gal6S(b1-4)Glc
# Summary of the method: as §1
# [19] = molecular target: Fuc(a1-2)Gal6S(b1-4)Glc6S
# Summary of the method: as §1
# [20] = molecular target: Fuc(a1-2)Gal6S(b1-4)GlcNAc
# Summary of the method: as §1
# [21] = molecular target: Fuc(a1-2)[Gal(a1-3)]Gal
# Summary of the method: as §1
# [22] = molecular target: Fuc(a1-2)[Gal(a1-3)]Gal(b1-3)GlcNAc
# Summary of the method: as §1
# [23] = molecular target: Fuc(a1-2)[Gal(a1-3)]Gal(b1-4)Glc
# Summary of the method: as §1
# [24] = molecular target: Fuc(a1-2)[Gal(a1-3)]Gal(b1-4)GlcNAc
# Summary of the method: as §1
# [25] = molecular target: Fuc(a1-2)[Gal(a1-3)]Gal(b1-4)[Fuc(a1-3)]GlcNAc
# Summary of the method: as §1
# [26] = molecular target: Fuc(a1-2)[Gal(a1-4)]Gal(b1-4)GlcNAc
# Summary of the method: as §1
# [27] = molecular target: Fuc(a1-2)[GalNAc(a1-3)]Gal
# Summary of the method: as §1
# [28] = molecular target: Fuc(a1-2)[GalNAc(a1-3)]Gal(b1-3)GlcNAc
# Summary of the method: as §1
# [29] = molecular target: Fuc(a1-2)[GalNAc(a1-3)]Gal(b1-4)Glc
# Summary of the method: as §1
# [30] = molecular target: Fuc(a1-2)[GalNAc(a1-3)]Gal(b1-4)GlcNAc
# Summary of the method: as §1
# [31] = molecular target: Fuc(a1-2)[GalNAc(a1-3)]Gal(b1-4)[Fuc(a1-3)]GlcNAc
# Summary of the method: as §1
# [32] = molecular target: Fuc(a1-2)[GalNAc(a1-4)]Gal(b1-4)GlcNAc
# Summary of the method: as §1
# [33] = molecular target: Fuc(a1-2)[GalNAc(b1-3)]Gal
# Summary of the method: as §1
# [34] = molecular target: Fuc(a1-3)GlcNAc
# Summary of the method: as §1
# [35] = molecular target: Fuc(a1-3)[Gal(b1-4)]Glc6S
# Summary of the method: as §1
# [36] = molecular target: Fuc(a1-3)[Gal(b1-4)]GlcNAc
# Summary of the method: as §1
# [37] = molecular target: Fuc(a1-3)[Gal(b1-4)]GlcNAc(b1-2)Man(a1-3)[Fuc(a1-3)[Gal(b1-4)]GlcNAc(b1-2)Man(a1-6)]Man(b1-4)GlcNAc(b1-4)GlcNAc
# Summary of the method: as §1
# [38] = molecular target: Fuc(a1-3)[Gal(b1-4)]GlcNAc(b1-2)Man(a1-6)[Gal(b1-4)GlcNAc(b1-2)Man(a1-3)]Man(b1-4)GlcNAc(b1-4)GlcNAc
# Summary of the method: as §1
# [39] = molecular target: Fuc(a1-3)[Gal(b1-4)]GlcNAc(b1-3)Gal(b1-3)[Fuc(a1-4)]GlcNAc
# Summary of the method: as §1
# [40] = molecular target: Fuc(a1-3)[Gal(b1-4)]GlcNAc(b1-4)Gal(b1-4)[Fuc(a1-3)]GlcNAc
# Summary of the method: as §1
# [41] = molecular target: Fuc(a1-3)[Gal(b1-4)]GlcNAc(b1-4)Gal(b1-4)[Fuc(a1-3)]GlcNAc(b1-4)Gal(b1-4)[Fuc(a1-3)]GlcNAc
# Summary of the method: as §1
# [42] = molecular target: Fuc(a1-3)[Gal(b1-4)]GlcNAc6S
# Summary of the method: as §1
# [43] = molecular target: Fuc(a1-3)[Gal3S(b1-4)]Glc6S
# Summary of the method: as §1
# [44] = molecular target: Fuc(a1-3)[Gal3S(b1-4)]GlcNAc
# Summary of the method: as §1
# [45] = molecular target: Fuc(a1-3)[Gal3S(b1-4)]GlcNAc6S
# Summary of the method: as §1
# [46] = molecular target: Fuc(a1-3)[GalNAc(b1-4)]GlcNAc
# Summary of the method: as §1
# [47] = molecular target: Fuc(a1-4)GlcNAc
# Summary of the method: as §1
# [48] = molecular target: Fuc(b1-3)GlcNAc
# Summary of the method: as §1
# [49] = molecular target: Gal(a1-2)Gal
# Summary of the method: as §1
# [50] = molecular target: Gal(a1-3)Gal
# Summary of the method: as §1
# [51] = molecular target: Gal(a1-3)Gal(b1-3)GlcNAc
# Summary of the method: as §1
# [52] = molecular target: Gal(a1-3)Gal(b1-4)Glc
# Summary of the method: as §1
# [53] = molecular target: Gal(a1-3)Gal(b1-4)GlcNAc
# Summary of the method: as §1
# [54] = molecular target: Gal(a1-3)Gal(b1-4)[Fuc(a1-3)]GlcNAc
# Summary of the method: as §1
# [55] = molecular target: Gal(a1-3)GalNAc
# Summary of the method: as §1
# [56] = molecular target: Gal(a1-3)[Gal(a1-4)]Gal(b1-4)GlcNAc
# Summary of the method: as §1
# [57] = molecular target: Gal(a1-4)Gal(b1-4)Glc
# Summary of the method: as §1
# [58] = molecular target: Gal(a1-4)Gal(b1-4)GlcNAc
# Summary of the method: as §1
# [59] = molecular target: Gal(a1-4)GlcNAc
# Summary of the method: as §1
# [60] = molecular target: Gal(a1-6)Glc
# Summary of the method: as §1
binder,measurement,setting,value
Surfactant Protein D (Human); Neck + Carbohydrate Recognition Domain (NCRD) (Homo sapiens) (protein) MLLFLLSALVLLTQPLGYLEAEMKTYSHRTMPSACTLVMCSSVESGLPGRDRDGREGPRGEKGDPGLPGAAGQAGMPGQAGPVGPKGDNGSVGEPGPKGDTGPSGPPGPPGVPGPAGREGALGKQGNIGPQGKPGPKGEAGPKGEVGAPGMQGSAGARGLAGPKGERGVPGERGVPGNTGAAGSAGAMGPQGSPGARGPPGLKGDKGIPGDKGAKGESGLPDVASLRQQVEALQGQVQHLQAAFSQYKKVELFPNGQSVGEKIFKTAQFVKPFTEAQLLCTQAGGQLASPRSAAENAALQQLVVAKNEAAFLSMTDSKTEGKFTYPTGESLVYSNWAPGKPNDDGGSEDCVEIFTNGKWNDRACGEKRLVVCEF,glycan array binding signal (z-score),[1],-0.314
same,glycan array binding signal (z-score),[2],-0.221
same,glycan array binding signal (z-score),[3],-0.212
same,glycan array binding signal (z-score),[4],0.12
same,glycan array binding signal (z-score),[5],-0.616
same,glycan array binding signal (z-score),[6],-0.526
same,glycan array binding signal (z-score),[7],-0.896
same,glycan array binding signal (z-score),[8],0.986
same,glycan array binding signal (z-score),[9],-0.62
same,glycan array binding signal (z-score),[10],-0.524
same,glycan array binding signal (z-score),[11],-0.6
same,glycan array binding signal (z-score),[12],0.004
same,glycan array binding signal (z-score),[13],-0.044
same,glycan array binding signal (z-score),[14],0.229
same,glycan array binding signal (z-score),[15],-0.011
same,glycan array binding signal (z-score),[16],0.16
same,glycan array binding signal (z-score),[17],1.25
same,glycan array binding signal (z-score),[18],0.45
same,glycan array binding signal (z-score),[19],0.578
same,glycan array binding signal (z-score),[20],1.44
same,glycan array binding signal (z-score),[21],-0.533
same,glycan array binding signal (z-score),[22],-0.11
same,glycan array binding signal (z-score),[23],-0.072
same,glycan array binding signal (z-score),[24],-0.71
same,glycan array binding signal (z-score),[25],0.06
same,glycan array binding signal (z-score),[26],0.984
same,glycan array binding signal (z-score),[27],-0.333
same,glycan array binding signal (z-score),[28],-0.437
same,glycan array binding signal (z-score),[29],-0.826
same,glycan array binding signal (z-score),[30],0.384
same,glycan array binding signal (z-score),[31],0.05
same,glycan array binding signal (z-score),[32],-0.35
same,glycan array binding signal (z-score),[33],-0.418
same,glycan array binding signal (z-score),[34],-0.981
same,glycan array binding signal (z-score),[35],0.3
same,glycan array binding signal (z-score),[36],1.15
same,glycan array binding signal (z-score),[37],0.679
same,glycan array binding signal (z-score),[38],-0.239
same,glycan array binding signal (z-score),[39],-0.095
same,glycan array binding signal (z-score),[40],-0.279
same,glycan array binding signal (z-score),[41],0.661
same,glycan array binding signal (z-score),[42],1.76
same,glycan array binding signal (z-score),[43],0.396
same,glycan array binding signal (z-score),[44],1.05
same,glycan array binding signal (z-score),[45],-0.022
same,glycan array binding signal (z-score),[46],-0.687
same,glycan array binding signal (z-score),[47],-0.581
same,glycan array binding signal (z-score),[48],0.752
same,glycan array binding signal (z-score),[49],-0.831
same,glycan array binding signal (z-score),[50],-0.277
same,glycan array binding signal (z-score),[51],-0.222
same,glycan array binding signal (z-score),[52],-0.338
same,glycan array binding signal (z-score),[53],0.494
same,glycan array binding signal (z-score),[54],-0.952
same,glycan array binding signal (z-score),[55],-0.893
same,glycan array binding signal (z-score),[56],0.032
same,glycan array binding signal (z-score),[57],-0.691
same,glycan array binding signal (z-score),[58],0.234
same,glycan array binding signal (z-score),[59],0.373
same,glycan array binding signal (z-score),[60],-1.01

# Two entries from above, with tabs:
binder	measurement	setting	value
Surfactant Protein D (Human); Neck + Carbohydrate Recognition Domain (NCRD) (Homo sapiens) (protein) MLLFLLSALVLLTQPLGYLEAEMKTYSHRTMPSACTLVMCSSVESGLPGRDRDGREGPRGEKGDPGLPGAAGQAGMPGQAGPVGPKGDNGSVGEPGPKGDTGPSGPPGPPGVPGPAGREGALGKQGNIGPQGKPGPKGEAGPKGEVGAPGMQGSAGARGLAGPKGERGVPGERGVPGNTGAAGSAGAMGPQGSPGARGPPGLKGDKGIPGDKGAKGESGLPDVASLRQQVEALQGQVQHLQAAFSQYKKVELFPNGQSVGEKIFKTAQFVKPFTEAQLLCTQAGGQLASPRSAAENAALQQLVVAKNEAAFLSMTDSKTEGKFTYPTGESLVYSNWAPGKPNDDGGSEDCVEIFTNGKWNDRACGEKRLVVCEF	glycan array binding signal (z-score)	[37]	0.679
same	glycan array binding signal (z-score)	[38]	-0.239
